In paper PMC7078472 one finds binding data, which are given here for two substances.

Chains of the proteins cited; added tags and fusions are not shown. Residues count along the entry.
UniProt Q8NE86, residues 51-351: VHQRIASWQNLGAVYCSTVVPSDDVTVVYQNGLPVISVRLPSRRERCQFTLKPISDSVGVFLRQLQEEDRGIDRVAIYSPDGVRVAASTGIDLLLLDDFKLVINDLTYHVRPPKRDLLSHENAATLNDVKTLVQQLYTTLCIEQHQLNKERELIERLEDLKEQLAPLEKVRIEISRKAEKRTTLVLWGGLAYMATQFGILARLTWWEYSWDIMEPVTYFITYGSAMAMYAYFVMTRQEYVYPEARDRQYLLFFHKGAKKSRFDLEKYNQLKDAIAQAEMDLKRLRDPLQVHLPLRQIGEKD
UniProt P05496, residues 62-136: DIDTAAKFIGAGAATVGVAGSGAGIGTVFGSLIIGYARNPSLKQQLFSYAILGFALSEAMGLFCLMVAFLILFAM

These are yes or no findings as the source states them, for the method shown. In cells and extracts the contact can be indirect. Some entries that bind do so weakly or less than the wild type.

Assay [1] concerns the target human MCU (HsMCU), endogenous (human (endogenous in HEK-293T and HeLa)) (UniProt Q8NE86). The assay is described as follows: co-IP; lysates of WT HEK-293T and HeLa cells (HEK-293T MCU-KO as negative control), native conditions, reciprocal IP with anti-HsMCU or anti-HsATPc, blots for HsMCU, HsATPc and HsHsp70.
Assay [2] deals with human ATP synthase subunit c (HsATPc), endogenous (human (endogenous in HEK-293T and HeLa)) (UniProt P05496). The assay is described as above.

In the case of “human ATP synthase subunit c (HsATPc), endogenous (from UniProt P05496 62-136)”, the binding result in assay [1] was “binds”.
In the case of “human MCU (HsMCU), endogenous (from UniProt Q8NE86 51-351)”, in assay [2], the binding entry is recorded as “binds”.
